The target of the experiment is T1, CG9890 protein (D. melanogaster (endogenous in S2)) (UniProt Q9W1V7).
T1 sequence: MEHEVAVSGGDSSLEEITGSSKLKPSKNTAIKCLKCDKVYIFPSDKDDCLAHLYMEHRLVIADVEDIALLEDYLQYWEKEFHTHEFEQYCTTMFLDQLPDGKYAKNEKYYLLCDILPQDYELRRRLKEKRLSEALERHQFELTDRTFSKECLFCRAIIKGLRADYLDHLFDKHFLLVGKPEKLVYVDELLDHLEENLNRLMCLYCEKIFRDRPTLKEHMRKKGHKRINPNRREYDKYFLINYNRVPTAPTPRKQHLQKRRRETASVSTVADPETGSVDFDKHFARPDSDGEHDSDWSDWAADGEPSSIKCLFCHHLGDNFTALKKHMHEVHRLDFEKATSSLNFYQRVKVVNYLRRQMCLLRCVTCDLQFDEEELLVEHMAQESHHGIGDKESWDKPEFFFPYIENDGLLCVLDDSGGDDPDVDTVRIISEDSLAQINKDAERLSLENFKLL
As to the kind of experiment: co-IP; immunoprecipitation with polyclonal anti-CG9890 antibodies immobilised on Mab-sepharose from S2 nuclear lysate (MN III buffer: 20 mM HEPES KOH, 3 mM MgCl2, 0.1% NP40, 0.1 M KCl, pH 8.0; sonicated, DNase I treated), 3 h at +4 °C; Western blot; IgG of an unimmunized rabbit as negative control. (In general: A western blot detects proteins with antibodies after separation by electrophoresis.)

No constants are given. Whether binding was seen depends on the method and setting. Binding seen in cells or lysates may run through a third protein. Binding calls can cover weak binding; strength is not graded here.

Take “Polybromo (PB) protein, subunit of the dSWI/SNF complex (D. melanogaster (endogenous in S2))”: the binding entry was “binds”.

(Values after PMC6351030.)
